Measurements reported in paper PMC7734574 (International Journal of Molecular Sciences, 2020).

System: lysates of human umbilical vein endothelial cells (HUVECs)
Assay: kinome activity profiling (PamGene) of treated cell lysate
Format: biochemical
Conditions: 1 µM, HUVEC lysate, 10% DMSO
Method: By using the PamGene technology, kinase activities are studied via the phosphorylation degree of over 144 substrate peptides fixed in arrays. […] As described above, 10% DMSO as co-solvent was also necessary in this assay to avoid compound precipitation of the micromolar compound solution.
Human Umbilical Vein Endothelial Cells (HUVECs) were obtained from PromoCell (Heidelberg, Germany) and cultivated with ECGM2 (PromoCell) at 37 °C and 5% CO2 in humidified atmosphere. For kinome profiling, HUVECs were seeded in cell culture flasks (25 cm^2) to 90% confluence. After cell lysis with M-Per and centrifugation at 4 °C, cell lysates were immediately stored at −80 °C [14]. Protein concentration was determined with Bradford assay (ThermoFisher, Waltham, MA, USA). Samples for profiling were prepared according to manufacturer’s protocol. For kinome profiling, PamStation® 12 was used (PamGene, ’s-Hertogenbosch, Netherlands). Protein tyrosine kinase PamChips® were used with a total of 5 µg protein and 100 µM ATP per array. The microchip for kinome profiling contains 144 peptides linked to a porous surface. These peptides can be phosphorylated by cell lysate kinases. Readout was achieved by washing microchips with fluorescent antibodies. […]

CNC(=O)c1ccccc1Sc1ccc2c(/C=C/c3ccccn3)n[nH]c2c1 [Compound 1, Axitinib] was tested, and the “kinase activities (phosphorylation degree of substrate peptides) compared to DMSO” value was “strong kinase inhibition”.
